Measurements as given in US6716858B1, “Methods for inhibiting diabetic complications” (Kansas University Medical Center, priority 1995, dated 2004).
Some entries share one result that the patent states for a list of compounds.

What was measured:
[1] = system: streptozotocin-induced diabetic rat; assay: STZ diabetic rat model, AGEs and crosslinking of collagen; assay type: in vivo; conditions: diabetic rats
Protocol: Animal studies. Diabetes was induced by a single tail vein injection of 45 mg/kg of STZ in 0.1 M sodium citrate buffer, pH 4.5. Control animals were sham injected with buffer only. Diabetes was confirmed by measuring blood glucose levels at 2 and 3 days after the STZ-injection. Animals with plasma glucose higher than 16 mM were classified as diabetic. The diabetic rats were divided randomly into an untreated diabetic group (n=12) and two diabetic treatment groups, receiving either PM (n=13) or AG (n=12) at 1 g/L in drinking water. Two non-diabetic control groups were included, one receiving no treatment (n=13), the other receiving PM(HCl)2 at 2 g/L in drinking water (n=12); the higher dose of PM in the PM-treated control group was designed to compensate, in part, for the lower water intake of non-diabetic, compared to diabetic animals. All animals were housed individually with a light dark cycle of 12 hours each, and had free access to food and water. To maintain body weight and to limit hyperglycemia, diabetic animals received 3 IU of ultralente insulin (Humulin U, Eli Lilly) three times per week; this was increased to 5 IU after week 15 to adjust for the increase in body weight.
Glycemic control. Glycemia was monitored by measurement of plasma glucose and glycated hemoglobin every four weeks, using a Sigma Trinder assay Kit (Sigma # 315). Blood (non-fasting) was obtained from the tail vein, using heparinized microhematocrit tubes, followed by sedimentation of red blood cells (RBC) in a bench-top microhematocrit centrifuge. A sample of plasma (5 μL) or glucose standard was mixed with 300 μL of reagent in a 96-well microtiter plate. The plate was shaken for 18 min and the absorbance at 490 nm was measured in a Wallac Victor 1420 multilabel counter (Wallac Inc. Gaithersburg, Md.). Glycated hemoglobin (GlcHb) was measured on whole blood by boronate affinity chromatography using a Sigma kit for total glycated hemoglobin (Sigma # 442-B).
Necropsy and tissue sampling. Rats were treated according to the guidelines of the Institutional Animal Care and Use Committee of the University of South Carolina. Blood was drawn from anaesthetized (halothane) rats by heart puncture and transferred into heparinized vacutainer tubes on ice; an aliquot was removed for analysis of glycated hemoglobin. Rats were then killed by over-anesthetization, and liver and kidneys were removed, the kidney decapsulated, and both organs rinsed in PBS buffer, and weighed. The right kidney was cut in half transversely, and one half was removed for fixation for electron and light microscopy. The remainder of the right kidney and the whole left kidney were frozen at −70° C. until processed for isolation of collagen. […]

[2] = system: Sprague-Dawley rats, glomerular changes; assay type: in vivo, rat; conditions: AGE-RSA injected rats under treatment
Protocol: Male Sprague-Dawley rats (Sasco, 100 g) were used. After a 1 week adaptation period, rats were placed in metabolic cages to obtain a 24 hour urine specimen for 2 days before administration of injections. Rats were then divided into experimental and control groups and given tail vein injections with either saline, unmodified RSA (50 mg/kg), Amadori-RSA (50 mg/kg), NaBH4-reduced Amadori-RSA (50 mg/kg), or AGE-RSA (50 mg/kg).
Rats injected with Amadori-RSA and AGE-RSA were then either left untreated, or further treated by the administration of either aminoguanidine (AG; 25 mg/kg), pyridoxamine (PM; 25 mg/kg), or a combination of AG and PM (10 mg/kg each) through the drinking water. Body weight and water intake of the rats were monitored weekly in order to adjust dosages. […]
After perfusion with saline, kidney sections were fixed in ice-cold 10% neutral buffered formalin. […] The alcian blue sections were scored by two investigators in a blinded fashion.
Parrafin-embedded sections were deparaffinized and then blocked with 10% goat serum in PBS for 30 min at room temperature. […] Sections were scored in a blinded fashion. Kidney sections were evaluated by the number and intensity of glomerular staining in 5 regions around the periphery of the kidney. […]
Total protein in urine was determined by Bio-Rad assay. […]

| Compound | decrease in half-time for digestion of collagen [1] | reduction of skin collagen CML toward the level in non-diabetic animals [1] | HS decrease as compared to controls [2] |
| --- | --- | --- | --- |
| N=C(N)NN [aminoguanidine, reference compound] | 30-40% | 35-45% | 30-50% |
| Cc1ncc(CO)c(CN)c1O [pyridoxamine] | 30-40% | 35-45% |  |
